# Reference: patent US20210309631A1, “SALT OF CYCLOHEXANE DERIVATIVE” (priority 2018, published 2021)
# This continues a long series; more values of the same kind are listed elsewhere.
# Test: In vivo individual difference analysis: individual plasma concentration versus time in rats (Example 8)
# Parameters: species or system SD rats
# Conditions: intragastric 1 mg/kg
# Procedure: Compound of Formula I and salts thereof (sulfate, hydrochloride salt, phosphate, maleate), supplied by Shanghai Jingxin Biopharmaceutical Co., Ltd. • Strain: SD rats; Gender: male; Body weight: about 250 grams; Source: shanghai Jiesijie Experimental Animal Co., Ltd Route: single intragastric administration; Capacity: measured in 10 mL/kg body weight Preparation: weighing appropriate amount of the free base or salt of the compound of Formula I, adding a small amount of 0.5% CMC-Na to grind, adding 0.5% CMC-Na to the volume. The concentration is measured as the base. 20 SD rats were divided into 5 groups with 4 rats in each group, fasted for 12 h and drank freely before administration. […] The blood was anticoagulated with 1% heparin, the plasma was separated by 8000 rpm centrifugation for 4 min and stored at -40° C. for testing. LC-MS/MS Method. Pharmacokinetic parameters after administration in rats were calculated using a non-compartmental model of DAS 2.0 software.
smiles,measurement,setting,value
"CN(C)C(=O)N[C@H]1CC[C@H](CCN2CCN(c3cccc4ccsc34)CC2)CC1.O=C(O)/C=C\C(=O)O [Example 5, N′-[trans-4-[2-[7-(benzo[b]thiophene)-7-piperazinyl]ethyl]cyclohexyl]-N,N-dimethylurea]",Plasma Concentrations of Compound of Formula I,"0 h after administration, Mean ± SD",0.000 ± 0.000 ng/mL
same,Plasma Concentrations of Compound of Formula I,"0 h after administration, rat 1♂",0 ng/mL
same,Plasma Concentrations of Compound of Formula I,"0 h after administration, rat 2♂",0 ng/mL
same,Plasma Concentrations of Compound of Formula I,"0 h after administration, rat 3♂",0 ng/mL
same,Plasma Concentrations of Compound of Formula I,"0 h after administration, rat 4♂",0 ng/mL
same,Plasma Concentrations of Compound of Formula I,"5 min after administration, Mean ± SD",0.796 ± 0.244 ng/mL
same,Plasma Concentrations of Compound of Formula I,"5 min after administration, rat 1♂",1.15 ng/mL
same,Plasma Concentrations of Compound of Formula I,"5 min after administration, rat 2♂",0.643 ng/mL
same,Plasma Concentrations of Compound of Formula I,"5 min after administration, rat 3♂",0.768 ng/mL
same,Plasma Concentrations of Compound of Formula I,"5 min after administration, rat 4♂",0.624 ng/mL
same,Plasma Concentrations of Compound of Formula I,"0.167 h after administration, Mean ± SD",13.8 ± 4.14 ng/mL
same,Plasma Concentrations of Compound of Formula I,"0.167 h after administration, rat 1♂",14.5 ng/mL
same,Plasma Concentrations of Compound of Formula I,"0.167 h after administration, rat 2♂",17.9 ng/mL
same,Plasma Concentrations of Compound of Formula I,"0.167 h after administration, rat 3♂",8.05 ng/mL
same,Plasma Concentrations of Compound of Formula I,"0.167 h after administration, rat 4♂",14.8 ng/mL
same,Plasma Concentrations of Compound of Formula I,"0.333 h after administration, Mean ± SD",40.4 ± 2.89 ng/mL
same,Plasma Concentrations of Compound of Formula I,"0.333 h after administration, rat 1♂",41.2 ng/mL
same,Plasma Concentrations of Compound of Formula I,"0.333 h after administration, rat 2♂",43.9 ng/mL
same,Plasma Concentrations of Compound of Formula I,"0.333 h after administration, rat 3♂",37.1 ng/mL
same,Plasma Concentrations of Compound of Formula I,"0.333 h after administration, rat 4♂",39.3 ng/mL
same,Plasma Concentrations of Compound of Formula I,"0.5 h after administration, Mean ± SD",44.8 ± 3.38 ng/mL
same,Plasma Concentrations of Compound of Formula I,"0.5 h after administration, rat 1♂",47.4 ng/mL
same,Plasma Concentrations of Compound of Formula I,"0.5 h after administration, rat 2♂",47.7 ng/mL
same,Plasma Concentrations of Compound of Formula I,"0.5 h after administration, rat 3♂",43.6 ng/mL
same,Plasma Concentrations of Compound of Formula I,"0.5 h after administration, rat 4♂",40.6 ng/mL
same,Plasma Concentrations of Compound of Formula I,"1 h after administration, Mean ± SD",43.9 ± 1.48 ng/mL
same,Plasma Concentrations of Compound of Formula I,"1 h after administration, rat 1♂",45.0 ng/mL
same,Plasma Concentrations of Compound of Formula I,"1 h after administration, rat 2♂",44.1 ng/mL
same,Plasma Concentrations of Compound of Formula I,"1 h after administration, rat 3♂",44.6 ng/mL
same,Plasma Concentrations of Compound of Formula I,"1 h after administration, rat 4♂",41.7 ng/mL
same,Plasma Concentrations of Compound of Formula I,"2 h after administration, Mean ± SD",23.3 ± 2.90 ng/mL
same,Plasma Concentrations of Compound of Formula I,"2 h after administration, rat 1♂",24.4 ng/mL
same,Plasma Concentrations of Compound of Formula I,"2 h after administration, rat 2♂",21.8 ng/mL
same,Plasma Concentrations of Compound of Formula I,"2 h after administration, rat 3♂",26.7 ng/mL
same,Plasma Concentrations of Compound of Formula I,"2 h after administration, rat 4♂",20.1 ng/mL
same,Plasma Concentrations of Compound of Formula I,"4 h after administration, Mean ± SD",7.74 ± 0.640 ng/mL
same,Plasma Concentrations of Compound of Formula I,"4 h after administration, rat 1♂",8.41 ng/mL
same,Plasma Concentrations of Compound of Formula I,"4 h after administration, rat 2♂",7.03 ng/mL
same,Plasma Concentrations of Compound of Formula I,"4 h after administration, rat 3♂",7.39 ng/mL
same,Plasma Concentrations of Compound of Formula I,"4 h after administration, rat 4♂",8.13 ng/mL
same,Plasma Concentrations of Compound of Formula I,"6 h after administration, Mean ± SD",2.77 ± 0.330 ng/mL
same,Plasma Concentrations of Compound of Formula I,"6 h after administration, rat 1♂",3.17 ng/mL
same,Plasma Concentrations of Compound of Formula I,"6 h after administration, rat 2♂",2.38 ng/mL
same,Plasma Concentrations of Compound of Formula I,"6 h after administration, rat 3♂",2.67 ng/mL
same,Plasma Concentrations of Compound of Formula I,"6 h after administration, rat 4♂",2.84 ng/mL
same,Plasma Concentrations of Compound of Formula I,"9 h after administration, Mean ± SD",1.18 ± 0.199 ng/mL
same,Plasma Concentrations of Compound of Formula I,"9 h after administration, rat 1♂",1.32 ng/mL
same,Plasma Concentrations of Compound of Formula I,"9 h after administration, rat 2♂",1.02 ng/mL
same,Plasma Concentrations of Compound of Formula I,"9 h after administration, rat 3♂",0.998 ng/mL
same,Plasma Concentrations of Compound of Formula I,"9 h after administration, rat 4♂",1.38 ng/mL
same,Plasma Concentrations of Compound of Formula I,"12 h after administration, Mean ± SD",0.720 ± 0.244 ng/mL
same,Plasma Concentrations of Compound of Formula I,"12 h after administration, rat 1♂",0.835 ng/mL
same,Plasma Concentrations of Compound of Formula I,"12 h after administration, rat 2♂",0.637 ng/mL
same,Plasma Concentrations of Compound of Formula I,"12 h after administration, rat 3♂",0.423 ng/mL
same,Plasma Concentrations of Compound of Formula I,"12 h after administration, rat 4♂",0.985 ng/mL
same,Plasma Concentrations of Compound of Formula I,"24 h after administration, Mean ± SD",0.186 ± 0.0899 ng/mL
same,Plasma Concentrations of Compound of Formula I,"24 h after administration, rat 1♂",0.313 ng/mL
same,Plasma Concentrations of Compound of Formula I,"24 h after administration, rat 2♂",0.101 ng/mL
same,Plasma Concentrations of Compound of Formula I,"24 h after administration, rat 3♂",0.170 ng/mL
same,Plasma Concentrations of Compound of Formula I,"24 h after administration, rat 4♂",0.161 ng/mL
